PubChem BioAssay AID1224830 – NIAID | 2016
The whole screen tested about 18,000 reagents; below is an unselected part. Of all reagents, about 2,900 (16%) are marked active. 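Calls are made per well; low scores hint the gene aids the LPS response, high scores that it dampens it.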 Unmarked entries are inactive. Repeated entries: four replicate wells of each siRNA pool. No sequences are given here.

- Aim: 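Genes whose knock-down alters the TNF-alpha reporter response to LPS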 (primary screen)
- Cells: human THP-1 monocytic leukaemia cells, TNF dual-luciferase reporter clone, PMA-differentiated to macrophage-like cells
- Reagent: siRNA pool against human genes, 50 nM
- Timing: LPS for 4 h, given about 3 days after siRNA transfection
- Challenge: bacterial LPS (TLR4 ligand), 10 ng/ml
- Measurement: 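Ratio of firefly to renilla light, scaled to the plate median and expressed as a robust z-score per replicate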
- Scale: TNF reporter robust z-score: higher = stronger TNF reporter response to LPS
- Active means: 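Each well counts as active if its z-score is over 2.8 or under -1.5; controls are left without a call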

NDNF (neuron derived neurotrophic factor) → TNF reporter robust z-score: -0.21
NDNF (neuron derived neurotrophic factor) → TNF reporter robust z-score: 0.63
NDNF (neuron derived neurotrophic factor) → TNF reporter robust z-score: 0.68
NDNF (neuron derived neurotrophic factor) → TNF reporter robust z-score: 1.53
KCNG2 → TNF reporter robust z-score: 0.4
KCNG2 → TNF reporter robust z-score: 0.04
KCNG2 → TNF reporter robust z-score: 0.25
KCNG2 → TNF reporter robust z-score: 1.02
KCNG2 → TNF reporter robust z-score: -1.84 (active)
KCNG2 → TNF reporter robust z-score: 0.82
KCNG2 → TNF reporter robust z-score: 1.67
KCNG2 → TNF reporter robust z-score: -0.73
ZNF76 (zinc finger protein 76) → TNF reporter robust z-score: -1.11
ZNF76 (zinc finger protein 76) → TNF reporter robust z-score: 0.87
ZNF76 (zinc finger protein 76) → TNF reporter robust z-score: -1.14
ZNF76 (zinc finger protein 76) → TNF reporter robust z-score: 0.1
CLTRN (collectrin, amino acid transport regulator) → TNF reporter robust z-score: 1.2
CLTRN (collectrin, amino acid transport regulator) → TNF reporter robust z-score: 0.75
CLTRN (collectrin, amino acid transport regulator) → TNF reporter robust z-score: 1.65
CLTRN (collectrin, amino acid transport regulator) → TNF reporter robust z-score: 2.86 (active)
PRSS55 (serine protease 55) → TNF reporter robust z-score: 0.52
PRSS55 (serine protease 55) → TNF reporter robust z-score: 1.08
PRSS55 (serine protease 55) → TNF reporter robust z-score: 0.64
PRSS55 (serine protease 55) → TNF reporter robust z-score: 0.14
RBBP5 → TNF reporter robust z-score: -0.98
RBBP5 → TNF reporter robust z-score: 0
RBBP5 → TNF reporter robust z-score: -0.81
RBBP5 → TNF reporter robust z-score: -0.01

Next part, starting with the last 5 of the part before.
PRSS55 (serine protease 55) → TNF reporter robust z-score: 0.14
RBBP5 → TNF reporter robust z-score: -0.98
RBBP5 → TNF reporter robust z-score: 0
RBBP5 → TNF reporter robust z-score: -0.81
RBBP5 → TNF reporter robust z-score: -0.01
ADAM2 (ADAM metallopeptidase domain 2) → TNF reporter robust z-score: -0.94
ADAM2 (ADAM metallopeptidase domain 2) → TNF reporter robust z-score: 0.04
ADAM2 (ADAM metallopeptidase domain 2) → TNF reporter robust z-score: -0.99
ADAM2 (ADAM metallopeptidase domain 2) → TNF reporter robust z-score: -0.35
ZIK1 (zinc finger protein interacting with K protein 1) → TNF reporter robust z-score: 2.49
ZIK1 (zinc finger protein interacting with K protein 1) → TNF reporter robust z-score: 2.61
ZIK1 (zinc finger protein interacting with K protein 1) → TNF reporter robust z-score: 3.34 (active)
ZIK1 (zinc finger protein interacting with K protein 1) → TNF reporter robust z-score: 8.87 (active)
SUCLG2 (succinate-CoA ligase GDP-forming subunit beta) → TNF reporter robust z-score: -0.23
SUCLG2 (succinate-CoA ligase GDP-forming subunit beta) → TNF reporter robust z-score: -0.54
SUCLG2 (succinate-CoA ligase GDP-forming subunit beta) → TNF reporter robust z-score: -0.75
SUCLG2 (succinate-CoA ligase GDP-forming subunit beta) → TNF reporter robust z-score: -0.35
CCDC191 (coiled-coil domain containing 191) → TNF reporter robust z-score: -0.47
CCDC191 (coiled-coil domain containing 191) → TNF reporter robust z-score: -0.39
CCDC191 (coiled-coil domain containing 191) → TNF reporter robust z-score: -0.07
CCDC191 (coiled-coil domain containing 191) → TNF reporter robust z-score: 0.47
OR9G9 (olfactory receptor family 9 subfamily G member 9) → TNF reporter robust z-score: -0.91
OR9G9 (olfactory receptor family 9 subfamily G member 9) → TNF reporter robust z-score: -0.07
OR9G9 (olfactory receptor family 9 subfamily G member 9) → TNF reporter robust z-score: 0.05
